Laboratory results reported in patent US20240307419A1, “CONFORMATIONALLY-CONSTRAINED INHIBITORS OF 3C OR 3C-LIKE PROTEASES” (priority 2021, published 2024).
For at least one compound, name, drawing or mass did not settle the structure.

Molecular target: SARS-CoV-2 3CLpro (Severe acute respiratory syndrome coronavirus 2 (2019-nCoV) (SARS-CoV-2), UniProt P0DTD1)
Type: biochemical

SMILES | IC50 values better than those of the 12b/12c pair | more potent than 17b
CC(C)C[C@H](NC(=O)OCC1CN(C(=O)OC(C)(C)C)C1)C(=O)N[C@H](C=O)C[C@H]1CCNC1=O [Compound 14b, Tert-butyl 3-(((((S)-4-methyl-1-oxo-1-(((S)-1-oxo-3-((R)-2-oxopyrrolidin-3-yl)propan-2-yl)amino)pentan-2-yl)carbamoyl)oxy)methyl)azetidine-1-carboxylate] | > 6 fold | 12 fold
CC(C)C[C@H](NC(=O)OCC1CN(C(=O)OC(C)(C)C)C1)C(=O)N[C@@H](C[C@H]1CCNC1=O)C(O)S(=O)(=O)[O-].[Na+] (stereo partly drawn) [Compound 14c, Sodium (2S)-2-((S)-2-((((1-(tert-butoxycarbonyl)azetidin-3-yl)methoxy)carbonyl)amino)-4-methylpentanamido)-1-hydroxy-3-((R)-2-oxopyrrolidin-3-yl)propane-1-sulfonate] | > 6 fold | 
